Test results as given in publication PMC7702304.
No constants are given. Whether binding was seen depends on the method and setting. Binding seen in cells or lysates may run through a third protein. Some results given as binding are weak or reduced against the parent protein; the word gives no strength.

Amino acid sequences for entries named in this document (tags omitted). Residues count along the entry.
UniProt Q5S007, residues 1-552: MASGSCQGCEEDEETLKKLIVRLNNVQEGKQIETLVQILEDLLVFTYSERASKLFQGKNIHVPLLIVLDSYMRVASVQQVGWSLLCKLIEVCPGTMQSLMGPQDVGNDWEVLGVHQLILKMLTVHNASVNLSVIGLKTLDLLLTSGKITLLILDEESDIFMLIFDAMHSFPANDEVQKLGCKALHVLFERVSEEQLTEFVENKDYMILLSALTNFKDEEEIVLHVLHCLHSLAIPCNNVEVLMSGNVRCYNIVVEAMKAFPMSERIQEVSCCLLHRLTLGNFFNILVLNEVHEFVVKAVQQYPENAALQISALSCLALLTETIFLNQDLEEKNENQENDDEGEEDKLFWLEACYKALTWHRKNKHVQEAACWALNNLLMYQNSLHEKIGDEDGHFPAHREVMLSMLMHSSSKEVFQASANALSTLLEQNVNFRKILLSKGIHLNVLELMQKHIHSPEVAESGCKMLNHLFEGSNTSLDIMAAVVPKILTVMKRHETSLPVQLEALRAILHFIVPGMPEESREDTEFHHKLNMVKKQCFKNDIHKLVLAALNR

Molecular target: 2X 6-His LRRK2 1-552 (UniProt Q5S007)
Experiment: pull-down; 6-His LRRK2 1-552 immobilised on nickel-NTA agarose; 1.5 mg intestinal tissue lysate diluted to 10 ml in low salt buffer (50 mM Tris-HCl pH 7.5, 150 mM NaCl, 5 mM MgCl2, 10% glycerol, 0.5 mM TCEP, 20 mM imidazole; ~0.03% Triton X-100) with 100 uM GTP-gamma-S; 2 h at 4°C; eluted with 500 mM imidazole; immunoblot; only the target purified

Row | binding | Binder
1 | binds | transgenic Rab29 (protein, UniProt Q91YQ1 1-204) MGSRDHLFKVLVVGDAAVGKTSLVQRYSQDSFSKHYKSTVGVDFALKVLQWSDSEMVRLQLWDIAGQERFTSMTRLYYRDASACVIMFDVTNATTFSNSQRWKQDLDSKLTLPSGEPVPCLLLANKSDLSPWAVSRDQIDRFSKENGFTGWTETSVKENKNINEAMRVLVEKMMNNSREDVMSLSTQGNYINLQAKPSSGWTCC
2 | binds | endogenously expressed wildtype Rab29 (protein, UniProt Q91YQ1 1-204) MGSRDHLFKVLVVGDAAVGKTSLVQRYSQDSFSKHYKSTVGVDFALKVLQWSDSEMVRLQLWDIAGQERFTSMTRLYYRDASACVIMFDVTNATTFSNSQRWKQDLDSKLTLPSGEPVPCLLLANKSDLSPWAVSRDQIDRFSKENGFTGWTETSVKENKNINEAMRVLVEKMMNNSREDVMSLSTQGNYINLQAKPSSGWTCC
